From paper PMC3364227
No constants are given. Whether binding was seen depends on the method and setting. Binding seen in cells or lysates may run through a third protein.

Target: T1, DJ-1 (endogenous, mouse liver cell line) (mouse (endogenous in mouse liver cells)) (UniProt Q99LX0)
T1 sequence: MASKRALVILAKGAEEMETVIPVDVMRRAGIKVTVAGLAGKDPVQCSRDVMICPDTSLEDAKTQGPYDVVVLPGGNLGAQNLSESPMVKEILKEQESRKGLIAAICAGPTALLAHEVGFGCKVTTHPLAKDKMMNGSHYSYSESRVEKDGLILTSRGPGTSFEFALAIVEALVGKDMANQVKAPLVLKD
Assay: co-IP; endogenous proteins in extracts of mouse liver cells or SH-SY5Y cells, immunoprecipitated with a rabbit anti-DJ-1 antibody or normal IgG; Western blotting with anti-SREBP-1, anti-SREBP-2 and anti-DJ-1 antibodies

B1: precursor SREBP-1 (sterol regulatory element binding protein 1), mouse liver cells (protein, UniProt Q9WTN3 1-1134)
chain: MDELAFGEAALEQTLAEMCELDTAVLNDIEDMLQLINNQDSDFPGLFDAPYAGGETGDTGPSSPGANSPESFSSASLASSLEAFLGGPKVTPAPLSPPPSAPAALKMYPSVSPFSPGPGIKEEPVPLTILQPAAPQPSPGTLLPPSFPAPPVQLSPAPVLGYSSLPSGFSGTLPGNTQQPPSSLPLAPAPGVLPTPALHTQVQSLASQQPLPASAAPRTNTVTSQVQQVPVVLQPHFIKADSLLLTAVKTDAGATVKTAGISTLAPGTAVQAGPLQTLVSGGTILATVPLVVDTDKLPIHRLAAGSKALGSAQSRGEKRTAHNAIEKRYRSSINDKIVELKDLVVGTEAKLNKSAVLRKAIDYIRFLQHSNQKLKQENLTLRSAHKSKSLKDLVSACGSGGGTDVSMEGMKPEVVETLTPPPSDAGSPSQSSPLSFGSRASSSGGSDSEPDSPAFEDSQVKAQRLPSHSRGMLDRSRLALCVLAFLCLTCNPLASLFGWGILTPSDATGTHRSSGRSMLEAESRDGSNWTQWLLPPLVWLANGLLVLACLALLFVYGEPVTRPHSGPAVHFWRHRKQADLDLARGDFPQAAQQLWLALQALGRPLPTSNLDLACSLLWNLIRHLLQRLWVGRWLAGQAGGLLRDRGLRKDARASARDAAVVYHKLHQLHAMGKYTGGHLAASNLALSALNLAECAGDAISMATLAEIYVAAALRVKTSLPRALHFLTRFFLSSARQACLAQSGSVPLAMQWLCHPVGHRFFVDGDWAVHGAPPESLYSVAGNPVDPLAQVTRLFREHLLERALNCIAQPSPGAADGDREFSDALGYLQLLNSCSDAAGAPACSFSVSSSMAATTGPDPVAKWWASLTAVVIHWLRRDEEAAERLYPLVEHIPQVLQDTERPLPRAALYSFKAARALLDHRKVESSPASLAICEKASGYLRDSLASTPTGSSIDKAMQLLLCDLLLVARTSLWQRQQSPASVQVAHGTSNGPQASALELRGFQHDLSSLRRLAQSFRPAMRRVFLHEATARLMAGASPARTHQLLDRSLRRRAGSSGKGGTTAELEPRPTWREHTEALLLASCYLPPAFLSAPGQRMSMLAEAARTVEKLGDHRLLLDCQQMLLRLGGGTTVTSS
binding: no binding
